{"sequences": {"note": "Protein sequences, listed by entry. Tags and fused reporters are not part of them.", "UniProt Q16539, whole entry": "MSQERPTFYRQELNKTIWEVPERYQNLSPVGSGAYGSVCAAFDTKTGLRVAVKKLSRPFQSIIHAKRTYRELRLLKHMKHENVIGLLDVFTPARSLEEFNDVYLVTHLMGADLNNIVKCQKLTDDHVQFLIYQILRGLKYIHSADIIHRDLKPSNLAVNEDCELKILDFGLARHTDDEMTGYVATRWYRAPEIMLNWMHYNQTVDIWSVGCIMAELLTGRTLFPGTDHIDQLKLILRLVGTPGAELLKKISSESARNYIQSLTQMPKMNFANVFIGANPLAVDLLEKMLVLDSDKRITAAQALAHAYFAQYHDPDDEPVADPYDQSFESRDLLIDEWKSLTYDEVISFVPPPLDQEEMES"}, "source": "patent US20080318977A1", "about": "“Condensed Pyridines as Kinase Inhibitors” (Palau Pharma, S.A., priority 2004, published 2008)", "target": "T1, p38α (Homo sapiens, UniProt Q16539)", "T1 construct": "GST-tagged fusion protein corresponding to full-length human p38α; purchased Upstate 14-251; host or cells: E. coli", "assay": "Inhibition of p38α enzyme activity (IMAP fluorescence polarisation kinase assay)", "type": "biochemical", "settings": "at 1 μM compound; ATP 20 μM; 2 h at RT", "description": "Inhibition of p38α Enzyme Activity:\nCompound stocks in 100% DMSO are first diluted in DMSO to a concentration of 1×10^−3 up to 3.2×10^−8 M and then further diluted in kinase assay buffer (10 mM Tris-HCl, pH 7.2, 10 mM MgCl2, 0.01% tween 20, 0.05% NaN3, 1 mM dithiothreitol) to a concentration range of 4×10^−5 up to 1.3×10^−9 M. Of each compound solution 5 μL is transferred into a 384-wells black Optiplate (Packard, 6007279), followed by the addition of 5 μL of ATP (Boehringer, 519987), 5 μL of Fluorescein-labeled EGFR (Epidermal Growth Factor Receptor) peptide substrate and 5 μL of active p38 cc kinase (GST-tagged fusion protein corresponding to full-length human p38α; expressed in E. coli by Upstate, 14-251), all diluted in kinase assay buffer (see final concentrations in Table 1). The mixture is incubated for 2 h at room temperature (RT). […] After incubation for 30 min at RT, FP is measured on an Analyst™ multimode fluorescence plate reader (Molecular Devices) at excitation wavelength of 485 nm and emission wavelength of 530 nm (1 sec/well).\nData handling is performed as follows: percentage effects are calculated based on no-p38-enzyme-addition as the maximum inhibitory effect and with p38 enzyme addition as the minimum inhibitory effect. In each experiment, individual compound concentrations are tested in duplicate and percentage effect is calculated for each concentration.", "note": "Some entries share one result that the patent states for a list of compounds. For at least one compound, name, drawing or mass did not settle the structure.", "data": [{"smiles": "CCCNCc1cc2nc(-c3ccc(F)cc3)c(-c3ccncc3)c(-c3ccc(F)cc3)c2n1C", "note": "[Example 36, [567-Bis-(4-fluoro-phenyl)-1-methyl-6-pyridin-4-yl-1H-pyrrolo[3,2-b]pyridin-2-ylmethyl]-propyl-amine]", "values": [{"measurement": "inhibition of p38α enzyme activity", "value": "more than 50%"}]}]}
